Test results: article PMC6925144, “A prospective compound screening contest identified broader inhibitors for Sirtuin 1” (Scientific Reports, 2019)
In all, about 3,200 compounds were measured (“TSA(without NAD+) / Primary screening (TSA) / delta Tm (K)”: median about -0.07, highest 2% from about 0.37 on). Some of the results follow.

Amino acid sequences for entries named in this document (tags omitted). Residues count along the entry.
UniProt Q96EB6, 2-747 limits assumed: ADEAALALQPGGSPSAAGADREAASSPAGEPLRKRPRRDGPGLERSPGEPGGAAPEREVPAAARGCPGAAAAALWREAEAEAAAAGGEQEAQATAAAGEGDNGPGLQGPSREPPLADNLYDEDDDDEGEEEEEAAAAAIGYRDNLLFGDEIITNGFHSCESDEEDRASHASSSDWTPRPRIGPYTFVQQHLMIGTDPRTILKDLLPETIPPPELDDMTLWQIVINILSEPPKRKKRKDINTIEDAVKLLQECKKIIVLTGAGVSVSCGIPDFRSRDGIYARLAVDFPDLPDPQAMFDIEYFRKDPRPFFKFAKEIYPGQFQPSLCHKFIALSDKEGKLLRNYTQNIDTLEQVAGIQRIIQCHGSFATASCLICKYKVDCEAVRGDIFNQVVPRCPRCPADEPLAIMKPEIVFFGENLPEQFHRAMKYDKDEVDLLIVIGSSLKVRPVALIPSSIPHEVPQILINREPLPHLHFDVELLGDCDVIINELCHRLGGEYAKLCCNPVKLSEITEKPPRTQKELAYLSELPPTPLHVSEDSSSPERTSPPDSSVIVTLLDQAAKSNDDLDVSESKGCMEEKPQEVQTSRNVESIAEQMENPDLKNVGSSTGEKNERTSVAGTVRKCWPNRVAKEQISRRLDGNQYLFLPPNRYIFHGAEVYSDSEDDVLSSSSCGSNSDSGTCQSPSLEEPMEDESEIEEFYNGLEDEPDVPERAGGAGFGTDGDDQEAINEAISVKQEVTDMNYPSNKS

These molecules were tested against NAD-dependent deacetylase Sirtuin 1 (human, UniProt Q96EB6) (assay: primary screen, delta tm). Conditions: 10 µM.
Parameters: single well (n = 1)
Outline: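 Thermal shift of Sirtuin 1 measured without NAD+, compound at 10 µM (n = 1); value is ΔTm, with hits defined as ΔTm > 0.45 K or < −1.5 K. Hits retested at 5, 10, 20 µM (n = 4) and counterscreened on bovine carbonic anhydrase and ABL1 SH2 domain.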

SMILES	TSA(without NAD+) / Primary screening (TSA) / delta Tm (K)
Cc1nc(-c2ccccn2)[nH]c(=O)c1CC(=O)NCc1cccc(Oc2ccccc2)c1	0.09
Cc1nc(SCC(=O)N(C)C2CCCc3ccccc32)c2ccccc2n1 (stereo not shown)	-0.22
Cc1cccc(C)c1OC(=O)c1ccc(C#N)cc1	-0.12
COC(=O)c1cc2ccccc2c(CN(C)Cc2ccc(C(N)=O)cc2)c1O	0.06
NNc1ncnc2c1cnn2-c1ccccc1	-0.05
NC(=O)c1ccc(NC(=O)COC(=O)COc2ccc3c(c2)CCC3)cc1	-0.11
O=C1NC(=S)NC(=O)C1=NNc1c(F)cccc1F	-0.08
COc1cc(CN(C)C(=O)CN2C(=O)COc3ccccc32)ccc1OCc1ccccc1	0.13
CC1CCc2c(sc3nc4c5ccccc5c5nnnn5n4c(=O)c23)C1 (stereo not shown)	-0.17
COc1ccc(C)cc1N1CC(C(=O)N2CCC(OC)CC2)CC1=O (stereo not shown)	0.07
COC(=O)Cn1cnc2c(N)ncnc21	-0.14
O=C(/C=C/c1ccc2c(c1)OCO2)N1CCCC1c1nc2ccccc2s1 (stereo not shown)	0.05
COc1cccc(NC(=O)COc2ccc(C(=O)NC(C)C34CC5CC(CC(C5)C3)C4)cc2)c1 (stereo not shown)	0.03
O=c1c2ccccc2ncn1CC(O)c1cccc(F)c1 (stereo not shown)	-0.13
CCOC(=O)N(C)CC(=O)Nc1ccc(-n2cnc3ccccc32)nc1	0.12
CC[C@@H]1C[C@H]1CN	-0.03
COc1cccc(C2C(C(=O)/C=C/c3ccco3)=C(O)C(=O)N2CCCN2CCOCC2)c1OC (stereo not shown)	0.12
Cc1cnc(C(=O)Nc2ccc(I)cc2C)cn1	-0.23
NC(=O)C1(c2ccccc2)CCNC1 (stereo not shown)	-0.08
CC1COCCN1c1ncnc2ccsc12 (stereo not shown)	-0.12
Cc1ccccc1COC(=O)/C(=C\c1ccccc1)n1nnnc1C	-0.24

SMILES	TSA(without NAD+) / Primary screening (TSA) / delta Tm (K)
O=c1cc(N2CCc3ccccc3CC2)nc2ccccn12	-0.24
NC(=O)C1CCCN(c2ncnc3cc(Cl)ccc23)C1 (stereo not shown)	0.08
Nc1nc(CN2CC(CO)Oc3ccccc32)nc(Nc2ccc(F)cc2)n1 (stereo not shown)	-0.08
CC1CN(S(=O)(=O)c2cccc(C(=O)OCC(=O)COC(=O)c3cccc(S(=O)(=O)N4CC(C)OC(C)C4)c3)c2)CC(C)O1 (stereo not shown)	-0.11
N#CCc1c[nH]c2ccc(C(N)=O)cc12	-0.04
Cc1ccc2c(COc3ncnc4sc5c(c34)CCC5)cc(=O)oc2c1C	-0.13
CC1CCc2[nH]c3ccc(C(=O)O)cc3c2C1 (stereo not shown)	-0.13
Cc1sc2ncnc(N3CCC(C(=O)Nc4nn5cnnc5s4)CC3)c2c1C	-0.03
O=C(OCC(=O)C12CC3CC(CC(C3)C1)C2)c1nn(Cc2ccccc2)c(=O)c2ccccc12	-0.12
Cc1cc(C(=O)O)c2ccccc2n1	-0.02
NC(=O)C1CCN(C(=O)c2ccn(-c3ccc(F)cc3)n2)C1 (stereo not shown)	0.02
Cc1ccc(NC(=O)c2ccc(Cl)nc2Cl)cc1Cl	-0.22
CN(C)C(C)(C)CNCc1c[nH]nc1-c1ccc2c(c1)OCCO2	-0.08
COc1cccc(/C=N/c2ccc(C)cc2C)c1O	0.02
Cc1ccc(OCc2nc3ccccc3n2Cc2ccccc2)cc1	-0.15
CCOc1ccc(C(NC(=O)c2cccc(C(N)=O)c2)c2ccccc2)cc1 (stereo not shown)	-0.13
Cc1c(C(=O)C2=C(O)C(=O)N(CCCN3CCOCC3)C2c2ccco2)cnn1-c1ccccc1 (stereo not shown)	-0.18
CC(C)(C)c1ccccc1NC(=O)c1ccc(S(=O)(=O)N2CCCC2)cc1	-0.07
CCOC(=O)CN	-0.12
O=C(Nc1cccc(S(=O)(=O)N2CCOCC2)c1)c1cn(-c2ccccc2)nc1-c1ccc(Cl)cc1	0.58
CC(=O)Nc1cccc2c1CCN(c1cc(=O)n3ccccc3n1)C2	-0.23

SMILES	TSA(without NAD+) / Primary screening (TSA) / delta Tm (K)
C1CCCC2(CC1)CCNC2	0.03
Cc1cc(C)c2c(n1)sc1c(N3CCOCC3)ncnc12	-0.07
Cc1ccc(N(C)S(=O)(=O)c2cccc(C(=O)NNC(=O)c3ccncc3)c2)cc1	-0.08
CN(C)c1ccnc(N2CCCC(N3CCNC3=O)C2)n1 (stereo not shown)	-0.18
O=C(Nc1ccc2[nH]c(=O)[nH]c2c1)c1cc(S(=O)(=O)NCC2CCCO2)ccc1Br (stereo not shown)	-0.15
Nc1ccc(-n2ncc3c(=O)[nH]cnc32)cc1	0.02
O=C1CC[C@@H](Nc2cnc3cc(F)c(F)cc3n2)[C@H](c2ccccc2)N1	-0.18
O=c1cc(N2CCC(Nc3ccccc3)CC2)nc2ccccn12	-0.04
COC(=O)c1cc(-c2csc(NC(=O)c3cccc(NC(=O)c4cnoc4C)c3)n2)c[nH]1	0.46
COc1ccc(OCCN(C)C(=O)c2ccc(NC3=NS(=O)(=O)c4ccccc43)cc2)cc1	0.09
CN(Cc1cnn(Cc2ccccc2)c1)C(=O)CCc1ncc(-c2c(F)cccc2F)o1	-0.03
Cn1c(=O)[nH]c(=O)c2c1nc(N1CCC(C(N)=O)CC1)n2CCSc1ncccn1	-0.07
NC(=O)c1ccc(OCC(=O)N(CCc2ccccc2)Cc2ccccc2)cc1	-0.27
C[C@H]1CNCCN1	-0.08
CC(C)(C)OC(=O)NC1CCN(CC(=O)NCCNc2ncnc3sccc23)CC1	0.25
COc1ccccc1NS(=O)(=O)c1cccc(NC(=O)c2oc3ccccc3c2CSC)c1	0.18
O=C(c1ccccc1)C(Sc1nc(-c2ccccc2)n[nH]1)c1ccccc1 (stereo not shown)	0.08
O=C(O)CNCC(=O)O	0.05
O=C(OCc1cc(=O)n2c(n1)sc1ccccc12)c1ccc2[nH]c3c(c2c1)CCCC3	0.25

Looked up above.
COc1cccc(/C=N/c2ccc(C)cc2C)c1O – TSA(without NAD+) / Primary screening (TSA) / delta Tm (K): 0.02
O=C1NC(=S)NC(=O)C1=NNc1c(F)cccc1F – TSA(without NAD+) / Primary screening (TSA) / delta Tm (K): -0.08
Cc1ccc(NC(=O)c2ccc(Cl)nc2Cl)cc1Cl – TSA(without NAD+) / Primary screening (TSA) / delta Tm (K): -0.22
